Measurements as given in publication doi:10.1101/2020.01.13.905190.
These are yes or no findings as the source states them, for the method shown. For some of these results: In cells and extracts the contact can be indirect. Some results given as binding are weak or reduced against the parent protein; the word gives no strength.

By UniProt entry, the sequences of proteins in these tests, tags left out. Where a name states a change or a piece, a line headed by the entry shows the natural chain unless it says otherwise. Chains listed by the source or under a name are the forms on record and can include a tag or linker. Residues count along the entry.
UniProt P00451: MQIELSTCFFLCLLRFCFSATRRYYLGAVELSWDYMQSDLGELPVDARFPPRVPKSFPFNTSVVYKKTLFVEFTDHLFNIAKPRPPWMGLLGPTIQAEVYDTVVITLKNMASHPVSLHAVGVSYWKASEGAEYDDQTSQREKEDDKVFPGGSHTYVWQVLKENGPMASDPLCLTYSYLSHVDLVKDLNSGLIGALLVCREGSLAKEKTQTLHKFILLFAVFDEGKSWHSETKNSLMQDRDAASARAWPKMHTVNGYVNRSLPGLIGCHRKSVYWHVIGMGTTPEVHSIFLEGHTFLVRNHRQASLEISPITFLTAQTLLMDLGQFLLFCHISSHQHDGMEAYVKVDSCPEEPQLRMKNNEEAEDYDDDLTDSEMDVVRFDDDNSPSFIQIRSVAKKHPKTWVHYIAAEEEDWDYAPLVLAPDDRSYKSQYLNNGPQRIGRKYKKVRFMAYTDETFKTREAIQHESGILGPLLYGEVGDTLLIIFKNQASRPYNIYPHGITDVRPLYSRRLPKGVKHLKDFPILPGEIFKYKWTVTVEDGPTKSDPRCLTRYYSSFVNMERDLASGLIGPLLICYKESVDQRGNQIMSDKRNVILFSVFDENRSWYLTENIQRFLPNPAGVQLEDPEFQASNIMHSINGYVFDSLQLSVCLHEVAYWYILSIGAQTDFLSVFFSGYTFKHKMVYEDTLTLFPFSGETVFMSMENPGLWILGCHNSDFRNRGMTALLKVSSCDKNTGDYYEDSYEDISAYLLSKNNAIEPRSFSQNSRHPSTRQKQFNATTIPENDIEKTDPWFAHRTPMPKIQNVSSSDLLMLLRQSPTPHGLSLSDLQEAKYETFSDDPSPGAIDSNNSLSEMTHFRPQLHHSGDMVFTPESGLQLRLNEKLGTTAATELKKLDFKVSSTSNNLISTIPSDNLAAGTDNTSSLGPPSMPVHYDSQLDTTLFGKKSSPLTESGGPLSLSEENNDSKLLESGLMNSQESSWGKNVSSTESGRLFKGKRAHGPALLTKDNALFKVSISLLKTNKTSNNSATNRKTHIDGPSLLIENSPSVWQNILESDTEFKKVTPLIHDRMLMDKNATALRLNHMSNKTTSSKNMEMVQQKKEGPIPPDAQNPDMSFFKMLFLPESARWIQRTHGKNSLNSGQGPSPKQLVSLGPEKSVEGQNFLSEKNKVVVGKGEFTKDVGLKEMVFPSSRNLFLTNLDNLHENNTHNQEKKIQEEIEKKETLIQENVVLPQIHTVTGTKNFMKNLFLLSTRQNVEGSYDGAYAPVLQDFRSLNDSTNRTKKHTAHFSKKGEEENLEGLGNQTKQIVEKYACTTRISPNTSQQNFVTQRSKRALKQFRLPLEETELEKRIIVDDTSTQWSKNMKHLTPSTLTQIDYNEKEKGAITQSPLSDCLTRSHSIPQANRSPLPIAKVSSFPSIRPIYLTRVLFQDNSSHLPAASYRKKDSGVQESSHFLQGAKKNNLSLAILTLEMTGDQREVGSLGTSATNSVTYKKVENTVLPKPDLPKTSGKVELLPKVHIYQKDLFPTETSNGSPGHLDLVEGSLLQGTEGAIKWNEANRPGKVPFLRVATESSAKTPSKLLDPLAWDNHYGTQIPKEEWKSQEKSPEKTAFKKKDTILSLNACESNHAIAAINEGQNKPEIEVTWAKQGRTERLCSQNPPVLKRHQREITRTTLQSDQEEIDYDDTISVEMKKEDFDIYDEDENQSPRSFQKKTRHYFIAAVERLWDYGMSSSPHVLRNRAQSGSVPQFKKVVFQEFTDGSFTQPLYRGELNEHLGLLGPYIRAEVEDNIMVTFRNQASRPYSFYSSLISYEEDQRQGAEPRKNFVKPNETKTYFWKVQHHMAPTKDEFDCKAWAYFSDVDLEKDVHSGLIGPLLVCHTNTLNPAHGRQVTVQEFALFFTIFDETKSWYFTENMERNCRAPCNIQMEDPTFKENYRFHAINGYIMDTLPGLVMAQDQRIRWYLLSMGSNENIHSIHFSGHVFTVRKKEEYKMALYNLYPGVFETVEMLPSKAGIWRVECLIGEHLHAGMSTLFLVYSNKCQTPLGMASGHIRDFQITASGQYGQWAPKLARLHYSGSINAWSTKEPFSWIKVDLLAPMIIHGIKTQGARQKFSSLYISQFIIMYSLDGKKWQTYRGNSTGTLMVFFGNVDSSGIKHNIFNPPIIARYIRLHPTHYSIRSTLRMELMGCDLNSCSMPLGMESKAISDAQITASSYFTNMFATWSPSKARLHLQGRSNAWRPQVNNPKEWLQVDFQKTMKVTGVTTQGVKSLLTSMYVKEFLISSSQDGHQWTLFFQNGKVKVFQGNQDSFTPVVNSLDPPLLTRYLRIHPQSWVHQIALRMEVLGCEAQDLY
F309SFVIII-CMy (P00451, form named): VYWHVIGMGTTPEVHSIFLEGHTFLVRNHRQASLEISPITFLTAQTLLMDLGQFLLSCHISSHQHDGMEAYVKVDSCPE
C310EFVIII-eGFP-CMy (P00451, form named): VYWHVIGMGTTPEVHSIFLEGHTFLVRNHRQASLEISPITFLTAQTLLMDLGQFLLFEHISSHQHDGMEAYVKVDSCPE
UniProt G3I8R9, residues 19-654: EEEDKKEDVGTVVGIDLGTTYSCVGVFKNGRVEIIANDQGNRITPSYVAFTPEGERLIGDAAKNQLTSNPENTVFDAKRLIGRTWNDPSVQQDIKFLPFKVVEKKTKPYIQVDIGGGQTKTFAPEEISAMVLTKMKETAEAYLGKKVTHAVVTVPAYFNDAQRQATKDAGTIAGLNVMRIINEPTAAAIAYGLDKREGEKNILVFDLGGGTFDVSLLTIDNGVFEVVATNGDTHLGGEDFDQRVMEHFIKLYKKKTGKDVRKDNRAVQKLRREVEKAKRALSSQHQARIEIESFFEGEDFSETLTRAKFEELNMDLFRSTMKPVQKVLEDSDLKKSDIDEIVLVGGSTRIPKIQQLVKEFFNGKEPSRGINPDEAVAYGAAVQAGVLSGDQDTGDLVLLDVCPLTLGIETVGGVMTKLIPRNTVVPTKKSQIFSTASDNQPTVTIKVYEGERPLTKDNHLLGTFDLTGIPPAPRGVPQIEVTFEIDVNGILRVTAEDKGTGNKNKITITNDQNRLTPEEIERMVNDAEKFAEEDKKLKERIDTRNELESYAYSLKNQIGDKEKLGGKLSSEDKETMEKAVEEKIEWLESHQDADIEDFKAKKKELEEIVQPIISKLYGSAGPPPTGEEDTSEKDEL

Experiments:
[1] = biological target: wtFVIII-eGFP-CMy (human) (UniProt P00451); assay: sucrose gradient sedimentation
[2] = biological target: F309SFVIII-eGFP-CMy (human) (UniProt P00451); assay: sucrose gradient sedimentation
[3] = biological target: F309SFVIII-CMy (human) (UniProt P00451); assay: sucrose gradient sedimentation
[4] = biological target: human FVIII expressed in H9 CHO cells (human) (UniProt P00451); assay: co-IP
[5] = biological target: human FVIII expressed in H9 CHO cells (human) (UniProt P00451); assay: co-IP; remark: listed apart in the source
[6] = biological target: C310EFVIII-eGFP-CMy (human) (UniProt P00451); assay: sucrose gradient sedimentation
[7] = biological target: human FVIII expressed in H9 CHO cells (human) (UniProt P00451); assay: sucrose gradient sedimentation with IP and electron microscopy

wtFVIII-eGFP-CMy (from UniProt P00451 272-350) (domain or fragment)
binding [1]: binds

F309SFVIII-eGFP-CMy (from UniProt P00451 272-350) (domain or fragment)
binding [2]: binds

F309SFVIII-CMy (from UniProt P00451 272-350) (domain or fragment)
binding [3]: binds

BiP/HSPA5 (endogenous in H9 CHO cells) (from UniProt G3I8R9 19-654)
binding [4]: binds
binding [5]: binds

C310EFVIII-eGFP-CMy (from UniProt P00451 272-350) (domain or fragment)
binding [6]: binds

human FVIII expressed in H9 CHO cells (from UniProt P00451 20-2351)
binding [7]: binds
